In article PMC5871684:
No constants are given. Whether binding was seen depends on the method and setting. Some results given as binding are weak or reduced against the parent protein; the word gives no strength. Sequences can lack the tags named with a protein. One block for each binder: values may come before it.

Target: T1, TOPLESS (TPL) fused with GAL4 DNA binding domain (Arabidopsis thaliana) (UniProt Q94AI7)
T1 sequence: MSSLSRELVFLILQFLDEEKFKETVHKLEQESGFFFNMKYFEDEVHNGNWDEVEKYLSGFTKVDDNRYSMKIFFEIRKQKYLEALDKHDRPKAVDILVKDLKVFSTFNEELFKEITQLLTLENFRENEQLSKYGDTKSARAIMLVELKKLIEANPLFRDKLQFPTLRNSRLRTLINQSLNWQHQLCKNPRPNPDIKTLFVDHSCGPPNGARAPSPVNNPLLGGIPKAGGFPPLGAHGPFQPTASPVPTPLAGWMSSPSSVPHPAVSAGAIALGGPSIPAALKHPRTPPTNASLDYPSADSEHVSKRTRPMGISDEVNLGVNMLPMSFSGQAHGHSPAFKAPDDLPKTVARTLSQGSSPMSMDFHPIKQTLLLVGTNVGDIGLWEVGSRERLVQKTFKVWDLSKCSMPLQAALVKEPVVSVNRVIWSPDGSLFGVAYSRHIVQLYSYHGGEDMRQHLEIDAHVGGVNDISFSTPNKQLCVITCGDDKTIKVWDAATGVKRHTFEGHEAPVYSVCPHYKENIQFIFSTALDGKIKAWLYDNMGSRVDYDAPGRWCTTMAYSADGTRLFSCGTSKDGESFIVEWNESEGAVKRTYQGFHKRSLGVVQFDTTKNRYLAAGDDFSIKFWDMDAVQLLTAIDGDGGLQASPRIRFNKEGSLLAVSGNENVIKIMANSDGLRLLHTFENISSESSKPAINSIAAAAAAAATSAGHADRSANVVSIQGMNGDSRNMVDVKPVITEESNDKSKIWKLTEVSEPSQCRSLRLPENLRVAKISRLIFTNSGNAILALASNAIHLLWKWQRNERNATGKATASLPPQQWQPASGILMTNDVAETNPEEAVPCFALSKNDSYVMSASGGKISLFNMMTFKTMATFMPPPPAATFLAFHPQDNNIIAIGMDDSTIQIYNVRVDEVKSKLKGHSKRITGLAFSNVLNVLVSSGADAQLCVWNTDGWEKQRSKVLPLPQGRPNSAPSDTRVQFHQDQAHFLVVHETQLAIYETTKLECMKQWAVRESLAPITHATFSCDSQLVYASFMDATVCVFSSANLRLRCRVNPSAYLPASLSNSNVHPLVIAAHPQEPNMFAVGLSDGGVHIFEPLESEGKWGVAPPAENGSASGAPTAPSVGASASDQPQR
Assay: two-hybrid; Matchmaker system, yeast AH109, co-transformation; TPL fused with GAL4-BD, ARF2 full length, domains or mutated MDs fused with GAL4-AD; serial 1:10 dilutions on SD2-, SD3- (0.2-0.5 mM 3-amino-triazole) or SD4-, 30°C, growth observed 4-10 days after plating

binding: binds
B1: ARF2 full length fused with GAL4 activation domain (protein, UniProt Q94JM3 1-859)
chain: MASSEVSMKGNRGGDNFSSSGFSDPKETRNVSVAGEGQKSNSTRSAAAERALDPEAALYRELWHACAGPLVTVPRQDDRVFYFPQGHIEQVEASTNQAAEQQMPLYDLPSKLLCRVINVDLKAEADTDEVYAQITLLPEANQDENAIEKEAPLPPPPRFQVHSFCKTLTASDTSTHGGFSVLRRHADECLPPLDMSRQPPTQELVAKDLHANEWRFRHIFRGQPRRHLLQSGWSVFVSSKRLVAGDAFIFLRGENGELRVGVRRAMRQQGNVPSSVISSHSMHLGVLATAWHAISTGTMFTVYYKPRTSPSEFIVPFDQYMESVKNNYSIGMRFKMRFEGEEAPEQRFTGTIVGIEESDPTRWPKSKWRSLKVRWDETSSIPRPDRVSPWKVEPALAPPALSPVPMPRPKRPRSNIAPSSPDSSMLTREGTTKANMDPLPASGLSRVLQGQEYSTLRTKHTESVECDAPENSVVWQSSADDDKVDVVSGSRRYGSENWMSSARHEPTYTDLLSGFGTNIDPSHGQRIPFYDHSSSPSMPAKRILSDSEGKFDYLANQWQMIHSGLSLKLHESPKVPAATDASLQGRCNVKYSEYPVLNGLSTENAGGNWPIRPRALNYYEEVVNAQAQAQAREQVTKQPFTIQEETAKSREGNCRLFGIPLTNNMNGTDSTMSQRNNLNDAAGLTQIASPKVQDLSDQSKGSKSTNDHREQGRPFQTNNPHPKDAQTKTNSSRSCTKVHKQGIALGRSVDLSKFQNYEELVAELDRLFEFNGELMAPKKDWLIVYTDEENDMMLVGDDPWQEFCCMVRKIFIYTKEEVRKMNPGTLSCRSEEEAVVGEGSDAKDAKSASNPSLSSAGNS

binding: no binding
B2: ARF2 PB1 domain fused with GAL4 activation domain (domain or fragment, UniProt Q94JM3 733-817)
chain: RSCTKVHKQGIALGRSVDLSKFQNYEELVAELDRLFEFNGELMAPKKDWLIVYTDEENDMMLVGDDPWQEFCCMVRKIFIYTKEE
